These are yes or no findings as the source states them, for the method shown. Binding seen in cells or lysates may run through a third protein. A result given as binding can be weak or reduced; the word gives no strength.

Experimental findings from publication PMC4231161 are described below.

This experiment deals with myosin light chain 1 (MLC1) (Toxoplasma gondii (endogenous in tachyzoites)). Put plainly: co-IP; polyclonal anti-MLC1 or anti-GAP45 antibodies on [35S]-labelled wild type (RH) and MyoA-KO parasites and on MyoA-iKO parasites +/- ATc, Triton X-100 lysate, autoradiography, bands quantified with ImageJ.

B1: gliding-associated protein GAP45 (protein, UniProt Q7Z289 1-245)
chain: MGNACKKNTAKTPTRKEAEDLAEKERQEREAKEKAEAEEKARAEAEKNAADKAEAERRAAEAREREESARKEAEAEAARKAEAEAAEAERLRKEAEKKKAEEAKRKAEEEQRAAAEEAEQRAREEAERRKAEAAAAAERERQMQEALKQEEMSPREKYDKLASPEDSASETTMATQPQKVAEHSSAAVTDRSVVGYTVTPCDMAAIDETAKYLSKRCGCDLGDQHDENECPICRHIDLSDAPLLN
For B1, the binding result is listed as “binds”.
